Data from paper PMC10656286.
No constants are given. Whether binding was seen depends on the method and setting. Binding seen in cells or lysates may run through a third protein. Some binding calls cover weakened binding; strength is not graded here. For part of these data: Tags and fused reporters may be left off the sequences shown.

By UniProt entry, the sequences of proteins in these tests, tags left out.
UniProt O00571: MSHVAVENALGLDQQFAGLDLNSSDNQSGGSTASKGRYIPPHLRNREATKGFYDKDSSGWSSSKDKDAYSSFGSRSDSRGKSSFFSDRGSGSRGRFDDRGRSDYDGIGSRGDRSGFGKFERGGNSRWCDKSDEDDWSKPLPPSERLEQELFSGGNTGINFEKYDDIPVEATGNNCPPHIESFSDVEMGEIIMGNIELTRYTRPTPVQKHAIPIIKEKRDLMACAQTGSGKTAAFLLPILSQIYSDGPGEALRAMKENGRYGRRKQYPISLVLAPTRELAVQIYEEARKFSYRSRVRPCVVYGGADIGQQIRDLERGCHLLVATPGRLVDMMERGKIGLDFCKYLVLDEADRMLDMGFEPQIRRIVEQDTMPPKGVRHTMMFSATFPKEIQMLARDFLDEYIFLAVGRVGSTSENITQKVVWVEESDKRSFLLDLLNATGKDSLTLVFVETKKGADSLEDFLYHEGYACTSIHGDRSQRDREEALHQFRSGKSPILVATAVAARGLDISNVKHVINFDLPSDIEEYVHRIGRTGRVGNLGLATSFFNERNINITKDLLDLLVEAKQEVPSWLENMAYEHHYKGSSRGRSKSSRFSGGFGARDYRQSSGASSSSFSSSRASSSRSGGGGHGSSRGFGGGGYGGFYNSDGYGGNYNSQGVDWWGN

Legend:
[1] = target: KLHL29 (endogenous, MDA-MB-231) (human (endogenous in MDA-MB-231)) (UniProt Q96CT2); assay: co-IP; endogenous proteins in MDA-MB-231 cells
[2] = target: T1, Flag-KLHL29 fragment M4 (Kelch domain, amino acids 585-875) (UniProt Q96CT2); assay: co-IP; HEK293T cells transfected with tagged plasmids; whole-cell lysates immunoprecipitated with anti-tag antibody (anti-Flag or anti-Myc), western blotting
T1 sequence: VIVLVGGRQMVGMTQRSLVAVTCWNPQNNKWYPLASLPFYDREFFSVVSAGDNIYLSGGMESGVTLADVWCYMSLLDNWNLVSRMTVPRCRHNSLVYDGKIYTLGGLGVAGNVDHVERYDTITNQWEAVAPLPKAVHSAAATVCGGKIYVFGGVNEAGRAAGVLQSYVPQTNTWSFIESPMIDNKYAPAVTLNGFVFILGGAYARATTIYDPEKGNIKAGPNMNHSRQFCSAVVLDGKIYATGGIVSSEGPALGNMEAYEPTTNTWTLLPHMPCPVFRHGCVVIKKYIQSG

[3] = target: Flag-KLHL29 (UniProt Q96CT2); assay: as above

DDX3X (endogenous, MDA-MB-231) (from UniProt O00571 1-662)
binding [1]: binds

Myc-DDX3X (from UniProt O00571 1-662)
binding [2]: binds | binding [3]: binds
